Measurements reported in patent publication US20170349667A1.
No constants are given. Whether binding was seen depends on the method and setting. For some assays here: Binding can be weak; no strength is given. Blank lines part the entries; values can stand above or below the binder they belong to.

Experiments:
[1] = molecular target: c-Met SEMA-PSI (ectodomain fragment) (human); experiment: bispecificity ELISA: SEMA-PSI coated, protein A purified antibody mixture, mouse anti-human kappa light chain antibody and HRP donkey anti-mouse, so that only an antibody with a SEMA-PSI binding lambda arm and a kappa arm is seen, 620 nm
[2] = molecular target: c-Met SEMA-PSI (ectodomain fragment) (human); experiment: ELISA: SEMA-PSI coated, protein A purified antibody mixture of the co-transfection (parental mAbs and bispecific), HRP goat anti-human Fc, which detects every SEMA-PSI binding mAb of the mixture, 620 nm
[3] = molecular target: c-Met SEMA-PSI (ectodomain fragment) (human); experiment: bispecificity ELISA, SEMA-PSI coated, anti-human Cκ detection
[4] = molecular target: c-Met SEMA domain (ectodomain fragment) (human); experiment: ELISA, c-Met ectodomains coated at 1 µg/ml, HRP-Protein A
[5] = molecular target: c-Met SEMA-PSI (ectodomain fragment) (human); experiment: ELISA, SEMA-PSI coated, anti-human Fc detection
[6] = molecular target: c-Met SEMA-PSI (ectodomain fragment) (human); experiment: ELISA: SEMA-PSI coated, parental mAb, HRP goat anti-human Fc, 620 nm
[7] = molecular target: Decoy c-Met (extracellular domain of human c-Met) (human); experiment: ELISA: c-Met ectodomain coated at 1 µg/ml, mAb in three-fold dilutions from 1 µg/ml, HRP-Protein A, TMB, OD 450
[8] = molecular target: c-Met SEMA-PSI-IPT1-2 (ectodomain fragment) (human); experiment: as above
[9] = molecular target: c-Met SEMA-PSI-IPT1-2 (ectodomain fragment) (human); experiment: ELISA, c-Met ectodomains coated at 1 µg/ml, HRP-Protein A
[10] = molecular target: c-Met SEMA-PSI-IPT1-2 (ectodomain fragment) (human); experiment: ELISA, coated c-Met ectodomains
[11] = molecular target: c-Met SEMA domain (ectodomain fragment) (human); experiment: bispecificity ELISA on immobilized SEMA domain (set-up of FIG. 29), samples taken after each purification step of transfection 5, anti-human Cκ detection, OD620
[12] = molecular target: c-Met SEMA domain (ectodomain fragment) (human); experiment: ELISA, immobilized SEMA domain, anti-Cκ detection
[13] = molecular target: c-Met SEMA domain (ectodomain fragment) (human); experiment: bispecificity ELISA in the set-up of FIG. 29: immobilized SEMA domain (words of paragraph 768; the drawing of FIG. 29 shows SEMA-PSI), Lambda-Select and Kappa-Select purified bispecific, anti-human Cκ detection, OD620
[14] = molecular target: c-Met SEMA domain (ectodomain fragment) (human); experiment: ELISA, immobilized SEMA domain, anti-human Cκ or anti-human Fc detection
[15] = molecular target: c-Met SEMA domain (ectodomain fragment) (human); experiment: ELISA, immobilized SEMA domain, anti-Fc detection
[16] = molecular target: c-Met SEMA domain (ectodomain fragment) (human); experiment: ELISA: immobilized SEMA domain (words of paragraph 768; the drawing of FIG. 29 shows SEMA-PSI), Lambda-Select and Kappa-Select purified bispecific, anti-human Fc detection, OD620
[17] = molecular target: c-Met SEMA domain (ectodomain fragment) (human); experiment: ELISA on immobilized SEMA domain, samples taken after each purification step of transfection 5, anti-human Fc detection, which also sees the parental 36C4 format left in the earlier steps, OD620
[18] = molecular target: c-Met SEMA domain (ectodomain fragment) (human); experiment: ELISA on immobilized SEMA domain, samples taken after each purification step of transfection 6, anti-human Fc detection, which also sees the parental 36C4 format left in the earlier steps, OD620
[19] = molecular target: c-Met SEMA domain (ectodomain fragment) (human); experiment: bispecificity ELISA on immobilized SEMA domain (set-up of FIG. 29), samples taken after each purification step of transfection 6, anti-human Cκ detection, OD620
[20] = molecular target: c-Met IPT3-4 (ectodomain fragment) (human); experiment: ELISA on coated c-Met ectodomains
[21] = molecular target: Decoy c-Met (extracellular domain of human c-Met) (human); experiment: ELISA, c-Met ectodomains coated at 1 µg/ml, HRP-Protein A

binding [1]: binds
binding [2]: binds
binding [3]: binds
B1: bispecific antibody 20F1:40B8 (Example 30) (bispecific antibody, V domains shown)
VH 1: EVQVQESGPGLVKPSQTLSLTCTVSGGSMTGNYYAWSWIRQPPGKGLEWMGVIAYDGSTYYSPSLKSRTSISRDTSKNQFSLQLSSVSPEDTAVYYCARGPGWYSGSRNDYWGQGTQVTVSS
VL 1: QSALTQPPSVSGSPGKTVTISCTGTNSDVGYGNYVSWYQQLPGMAPKLLIYDVNRRASGIADRFSGSKSGNTASLTISGLQSEDEGDYHCASYRSANNAVFGGGTHLFVL
VH 2: EVQLVQPGAELRNPGASVKVSCKASGYTFTNYVIDWVRQAPGQGLEWMGRIDPENGGTRYAQKFQGRVTFTADTSTSTAYVELSNLRSEDTAVYYCARLEDYELAYDYWGQGTQVTVSS
VL 2: DIVMTQTPSSVTASAGEKVTINCKSSQSVLLSSNQKNYLAWYQQRLGQSPRLLIYWASTRESGVPDRFSGSGSTTDFTLTISSFQPEDAAVYYCQQGVSFPLTFGQGTKVELK

binding [4]: binds
binding [5]: binds
binding [6]: binds
B3: 20F1 mAb (antibody, human IgG1, V domains shown)
VH: EVQVQESGPGLVKPSQTLSLTCTVSGGSMTGNYYAWSWIRQPPGKGLEWMGVIAYDGSTYYSPSLKSRTSISRDTSKNQFSLQLSSVSPEDTAVYYCARGPGWYSGSRNDYWGQGTQVTVSS
VL: QSALTQPPSVSGSPGKTVTISCTGTNSDVGYGNYVSWYQQLPGMAPKLLIYDVNRRASGIADRFSGSKSGNTASLTISGLQSEDEGDYHCASYRSANNAVFGGGTHLFVL

binding [11]: binds
binding [12]: binds
binding [13]: binds
binding [14]: binds
binding [15]: binds
binding [16]: binds
binding [17]: binds
B5: bispecific VHVL36C4+VHVK40B8 (Example 31, sample 5) (bispecific antibody, V domains shown)
VH 1: QVQLVESGPGLVKPSQTLSLTCAVSGGSITTNYYYWSWIRQSPGKGLEWMGVIAYDGSTDYSPSLKSRTSISRDTSKNQFSLQLSSVTPEDTAVYYCARDVRVIATGWATANALDAWGQGTQVTVSS
VL 1: QSVLTQPPSVSGSPGKTVTISCAGTSSDVGYGNYVSWYQQLPGTAPKLLIFAVSYRASGIPDRFSGSKSGNTAFLTISGLQSEDEADYYCASYRSSNNAAVFGGGTHLTVL
VH 2: EVQLVQPGAELRNPGASVKVSCKASGYTFTNYVIDWVRQAPGQGLEWMGRIDPENGGTRYAQKFQGRVTFTADTSTSTAYVELSNLRSEDTAVYYCARLEDYELAYDYWGQGTQVTVSS
VL 2: DIVMTQTPSSVTASAGEKVTINCKSSQSVLLSSNQKNYLAWYQQRLGQSPRLLIYWASTRESGVPDRFSGSGSTTDFTLTISSFQPEDAAVYYCQQGVSFPLTFGQGTKVELK

binding [9]: binds
B8: 12G4 mAb (antibody, human IgG1, V domains shown)
VH: QLQLVESGGGMAQPGGSLKLSCAASGFTFDDYAMTWVRQAPGKGLEWLSTISWNDINTYYAESMKDRFTISRDNAKNTLYLQMNSLESEDTAVYYCAKRRDNYYGTSGEYDYWGQGTQVTVSS
VL: QSALTQPPSVSGTLGKTVTISCAGTSSDIGNYNYVSWYQQLPGTAPKLLIYEVNKRPSGIPDRFSGSKSGNTASLSISGLQSEDEADYYCASYRSSNNVVFGGGTKLTVL

Further lines, the binder ahead of its results:

B2: bispecific antibody 20F1:38H10 (Example 30) (bispecific antibody, V domains shown)
VH 1: EVQVQESGPGLVKPSQTLSLTCTVSGGSMTGNYYAWSWIRQPPGKGLEWMGVIAYDGSTYYSPSLKSRTSISRDTSKNQFSLQLSSVSPEDTAVYYCARGPGWYSGSRNDYWGQGTQVTVSS
VL 1: QSALTQPPSVSGSPGKTVTISCTGTNSDVGYGNYVSWYQQLPGMAPKLLIYDVNRRASGIADRFSGSKSGNTASLTISGLQSEDEGDYHCASYRSANNAVFGGGTHLFVL
VH 2: EVQLVQPGVELRNPGASVKVSCKASGYIFTMNSIDWVRQAPGQGLEWMGRIDPEDGGTKYAQKFQGRVTFTADTSTSTAYVELNSLRSEDTAVYYCARVDDYYLGYDYWGQGTQVTVSS
VL 2: EIVMTQSPSSVTASAGEKVTINCKSSQSVLWRSNQKNYLAWYQQRLGQSPRLLISWASIRESGVPDRFSGSGSTTDFTLTISSFQPEDAAVYYCQQGYSFPYTFGSGTRLEIK
binding [1]: binds
binding [2]: binds
binding [3]: binds

B4: 40B8 mAb (antibody, human IgG1, V domains shown)
VH: EVQLVQPGAELRNPGASVKVSCKASGYTFTNYVIDWVRQAPGQGLEWMGRIDPENGGTRYAQKFQGRVTFTADTSTSTAYVELSNLRSEDTAVYYCARLEDYELAYDYWGQGTQVTVSS
VL: DIVMTQTPSSVTASAGEKVTINCKSSQSVLLSSNQKNYLAWYQQRLGQSPRLLIYWASTRESGVPDRFSGSGSTTDFTLTISSFQPEDAAVYYCQQGVSFPLTFGQGTKVELK
binding [7]: binds
binding [8]: binds
binding [9]: binds
binding [10]: binds

B6: bispecific VHVL36C4+VHVK38H10 (Example 31, sample 6) (bispecific antibody, V domains shown)
VH 1: QVQLVESGPGLVKPSQTLSLTCAVSGGSITTNYYYWSWIRQSPGKGLEWMGVIAYDGSTDYSPSLKSRTSISRDTSKNQFSLQLSSVTPEDTAVYYCARDVRVIATGWATANALDAWGQGTQVTVSS
VL 1: QSVLTQPPSVSGSPGKTVTISCAGTSSDVGYGNYVSWYQQLPGTAPKLLIFAVSYRASGIPDRFSGSKSGNTAFLTISGLQSEDEADYYCASYRSSNNAAVFGGGTHLTVL
VH 2: EVQLVQPGVELRNPGASVKVSCKASGYIFTMNSIDWVRQAPGQGLEWMGRIDPEDGGTKYAQKFQGRVTFTADTSTSTAYVELNSLRSEDTAVYYCARVDDYYLGYDYWGQGTQVTVSS
VL 2: EIVMTQSPSSVTASAGEKVTINCKSSQSVLWRSNQKNYLAWYQQRLGQSPRLLISWASIRESGVPDRFSGSGSTTDFTLTISSFQPEDAAVYYCQQGYSFPYTFGSGTRLEIK
binding [18]: binds
binding [12]: binds
binding [13]: binds
binding [14]: binds
binding [19]: binds
binding [15]: binds
binding [16]: binds

B7: 38H10 mAb (antibody, human IgG1, V domains shown)
VH: EVQLVQPGVELRNPGASVKVSCKASGYIFTMNSIDWVRQAPGQGLEWMGRIDPEDGGTKYAQKFQGRVTFTADTSTSTAYVELNSLRSEDTAVYYCARVDDYYLGYDYWGQGTQVTVSS
VL: EIVMTQSPSSVTASAGEKVTINCKSSQSVLWRSNQKNYLAWYQQRLGQSPRLLISWASIRESGVPDRFSGSGSTTDFTLTISSFQPEDAAVYYCQQGYSFPYTFGSGTRLEIK
binding [9]: binds

B9: 20A11 mAb (antibody, human IgG1, V domains shown)
VH: QVQLVESGGGLVQPGGSLRLSCAASGFTFDDYAMSWVRQAPGKGLEWVSAISWNGSSTYYAESMKGRFTISRDNAKNTLYLQMNSLKSEDTAVYYCAKDLIGSHDYWGQGTQVTVSS
VL: QAVLTQPPSVSGTLGKTLTISCAGTSSDVGYGNYVSWYQQLPGTAPKLLIYAVSTRASGIPDRFSGSKSGNTASLTISGLQSEDEADYYCASYRSSNNYAFGAGTKLTVL
binding [20]: no binding (tested: 1 µg/ml)
binding [21]: binds

B10: 34H7 mAb (antibody, human IgG1, V domains shown)
VH: ELQLVESGGALVQPGGSLRLSCVESGFTFSSYAMSWVRQAPGKGLEWVSGIYKGGGPKYANSVKGRFTISRDNAKNTLYLQMNSLKPEDTAVYYCAKSGYGSSLGDFGSWGQGTQVTVSS
VL: QAGLTQLSSMSGSPGQTVTITCTGSSSNIGGGYYLSWYQHLPGTAPKLLIYSNINRASGVPDRFSGSTSGISASLTITGLQAEDEADYYCSSWDDSVSGPVFGGGTSLTVL
binding [4]: binds
